Values quoted from earlier work, collected in US20230392195A1, “SYNTHETIC LETHALITY-MEDIATED PRECISION ONCOLOGY VIA TUMOR TRANSCRIPTOME” (The United States of America, as Represented by the …, priority 2020, published 2023).
At least one compound was matched to its structure with a doubt left.

System: advanced solid tumors
Details: individual patient case: everolimus in an neuroendocrine cancer patient, cabozantinib in a colon cancer patient

COc1cc2nccc(Oc3ccc(NC(=O)C4(C(=O)Nc5ccc(F)cc5)CC4)cc3)c2cc1OC [cabozantinib]
response to the therapy in the trial: failed to respond
